Data source: PubChem BioAssay AID504764 (Drosophila RNAi Screening Center, 2011)

Purpose: 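Genes whose knock-down alters Notch-dependent transcription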 (primary screen)
Cell system: Drosophila Kc167 cells
Knock-down reagent: long dsRNA against Drosophila genes
Time to read-out: about 5 days (4 days dsRNA, then 24 h after transfection)
Conditions: transfection of constitutively active membrane-tethered Notch lacking the extracellular domain, read 24 h later
Detection: 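Light from a Notch-responsive E(spl)m3 luciferase reporter under active Notch, with control-promoter and no-Notch reporter wells to normalise; raw counts from paired wells a and b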
Scale: induced reporter light, run 1, well a and induced reporter light, run 1, well b: higher = more light from the Notch target reporter with active Notch; control promoter light, run 1, well a and control promoter light, run 1, well b: higher = more light from the viral control promoter (cell number, transfection, viability); uninduced reporter light, run 1, well a: higher = more light from the Notch target reporter without active Notch
Hit rule: 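Hit if the duplicate-averaged log2 ratio of induced to control-promoter light gives a plate-wise z beyond ±2, or induced to uninduced beyond ±1.8; weak-control or discordant-duplicate wells dropped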
Meaning of the calls: active = modifier hit (raised or lowered Notch signal); inactive = not a hit
In all, the deposit lists about 22,000 reagents; shown is a random part of those with a known target gene and a result. Over the whole deposit, 403 (1.9%) got an active call. 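Unnormalised raw counts per well; ratio z-scores behind the hit calls and whether each hit raises or lowers signal are not deposited.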 A plus sign joins genes that one reagent is predicted to hit. The record does not give: the amount of reagent.

no.	Gene	dsRNA	induced reporter light, run 1, well a	induced reporter light, run 1, well b	control promoter light, run 1, well a	control promoter light, run 1, well b	uninduced reporter light, run 1, well a	activity call
1	RpLP1	DRSC00783	48630	48055	53330	53075	3790	inactive
2	Nipsnap	DRSC20169	1.87e5	1.74e5	2.36e5	1.84e5	12365	inactive
3	btv	DRSC01615	64930	69860	72780	70350	3790	inactive
4	btv	DRSC02449	1.14e5	1.23e5	1.06e5	1.22e5	8625	inactive
5	Cyp12b2	DRSC07364	77180	79265	79655	66160	7005	inactive
6	Rpt4	DRSC18713	45945	48405	52060	58295	3420	active
7	CG32271	DRSC08198	62545	1.15e5	1.71e5	2.47e5	9370	active
8	Nf-YC	DRSC18272	6290	6895	8380	9355	3290	inactive
9	CG13616	DRSC14619	1.78e5	1.52e5	1.98e5	1.73e5	12950	inactive
10	CG17327	DRSC15225	3.53e5	3.63e5	3.49e5	3.75e5	25055	inactive
11	beat-IIa	DRSC14813	1.45e5	1.56e5	1.32e5	1.40e5	13165	inactive
12	beat-IIa	DRSC14814	1.81e5	1.81e5	2.14e5	1.98e5	16515	inactive
13	Rop	DRSC08693	1.54e5	1.33e5	1.17e5	38275	14260	inactive
14	CG31921	DRSC00013	1.06e5	1.04e5	1.45e5	1.39e5	9070	inactive
15	ssp6	DRSC08791	2.11e5	1.76e5	2.04e5	1.73e5	10815	inactive
16	ssp6	DRSC10677	1.68e5	1.98e5	2.47e5	2.32e5	9920	inactive
17	CG17242	DRSC00493	1.17e5	99740	1.03e5	74145	10565	inactive
18	Sfp38D	DRSC01810	72470	66475	68525	80820	7045	inactive
19	CG32212 + hpRNA:CR33940	DRSC09618	2.42e5	2.55e5	3.27e5	3.06e5	20735	inactive
20	CG11842	DRSC14400	3.06e5	3.38e5	3.72e5	3.57e5	22435	inactive
21	Gr28a	DRSC02290	71110	59515	62765	71045	4375	inactive
22	lectin-21Ca	DRSC00541	1.40e5	1.06e5	95325	49965	9050	inactive
23	ATPsynCF6L	DRSC08232	1.78e5	2.16e5	2.63e5	2.54e5	12190	inactive
24	MED21	DRSC20932	1.13e5	1.08e5	82405	86620	9285	inactive
25	bma	DRSC09896	2.17e5	1.65e5	2.45e5	1.63e5	12070	inactive
26	bma	DRSC10164	1.08e5	92210	1.57e5	96890	9710	inactive
27	CG1638	DRSC15132	1.59e5	1.62e5	3.13e5	3.29e5	11855	inactive
28	Lnpk	DRSC07254	1.66e5	1.32e5	1.29e5	1.49e5	11890	inactive
29	CG12054	DRSC14467	9850	10405	12525	14190	3910	inactive
30	mRpL28	DRSC02724	1.17e5	1.03e5	99760	1.03e5	7765	inactive
31	peo	DRSC05995	1.49e5	1.64e5	1.59e5	1.51e5	15010	inactive

Next part (3 carried over from the part before).
no.	Gene	dsRNA	induced reporter light, run 1, well a	induced reporter light, run 1, well b	control promoter light, run 1, well a	control promoter light, run 1, well b	uninduced reporter light, run 1, well a	activity call
29	CG12054	DRSC14467	9850	10405	12525	14190	3910	inactive
30	mRpL28	DRSC02724	1.17e5	1.03e5	99760	1.03e5	7765	inactive
31	peo	DRSC05995	1.49e5	1.64e5	1.59e5	1.51e5	15010	inactive
32	Cyp6g1	DRSC07386	1.97e5	1.47e5	1.71e5	1.42e5	12660	inactive
33	CG9686	DRSC18439	1.19e5	1.24e5	2.69e5	2.52e5	9360	inactive
34	CG5440	DRSC00685	1.12e5	83885	1.06e5	67510	9315	inactive
35	TfAP-2	DRSC11601	58615	50520	61025	47745	3175	inactive
36	CG6294 + CG6299 + CG15642	DRSC19981	55075	53700	54550	64610	8330	inactive
37	obst-A	DRSC20543	1.09e5	1.34e5	1.22e5	62610	10555	inactive
38	CG33490	DRSC10587	1.48e5	1.28e5	85205	37685	10900	inactive
39	sturkopf	DRSC08637	92450	98905	1.75e5	1.86e5	9325	inactive
40	CG6329	DRSC06976	1.30e5	1.06e5	1.16e5	73585	10175	inactive
41	htt	DRSC16970	98525	1.14e5	1.53e5	1.39e5	9955	inactive
42	CG32486	DRSC08413	70330	93975	68410	22800	14095	inactive
43	CG32486	DRSC08488	1.58e5	1.18e5	2.35e5	1.63e5	7450	inactive
44	Fer1	DRSC12507	74165	73990	83300	90100	6525	inactive
45	Fer1	DRSC12555	70270	88565	69865	69220	6670	inactive
46	CG2931	DRSC12324	71685	73180	64260	54920	6585	inactive
47	TfIIA-S-2	DRSC17791	84540	1.11e5	97745	1.25e5	6315	active
48	RpL10Ab	DRSC10798	25830	22115	38930	32115	1270	inactive
49	CG5386	DRSC15788	51680	42585	36620	32905	6725	inactive
50	CG5391	DRSC15790	1.61e5	1.43e5	1.95e5	1.88e5	11485	inactive
